The values that follow come from article PMC11164484.

Sequences of proteins named here, by UniProt entry; tags and fusion partners are left off. Residues count along the entry.
UniProt P15924: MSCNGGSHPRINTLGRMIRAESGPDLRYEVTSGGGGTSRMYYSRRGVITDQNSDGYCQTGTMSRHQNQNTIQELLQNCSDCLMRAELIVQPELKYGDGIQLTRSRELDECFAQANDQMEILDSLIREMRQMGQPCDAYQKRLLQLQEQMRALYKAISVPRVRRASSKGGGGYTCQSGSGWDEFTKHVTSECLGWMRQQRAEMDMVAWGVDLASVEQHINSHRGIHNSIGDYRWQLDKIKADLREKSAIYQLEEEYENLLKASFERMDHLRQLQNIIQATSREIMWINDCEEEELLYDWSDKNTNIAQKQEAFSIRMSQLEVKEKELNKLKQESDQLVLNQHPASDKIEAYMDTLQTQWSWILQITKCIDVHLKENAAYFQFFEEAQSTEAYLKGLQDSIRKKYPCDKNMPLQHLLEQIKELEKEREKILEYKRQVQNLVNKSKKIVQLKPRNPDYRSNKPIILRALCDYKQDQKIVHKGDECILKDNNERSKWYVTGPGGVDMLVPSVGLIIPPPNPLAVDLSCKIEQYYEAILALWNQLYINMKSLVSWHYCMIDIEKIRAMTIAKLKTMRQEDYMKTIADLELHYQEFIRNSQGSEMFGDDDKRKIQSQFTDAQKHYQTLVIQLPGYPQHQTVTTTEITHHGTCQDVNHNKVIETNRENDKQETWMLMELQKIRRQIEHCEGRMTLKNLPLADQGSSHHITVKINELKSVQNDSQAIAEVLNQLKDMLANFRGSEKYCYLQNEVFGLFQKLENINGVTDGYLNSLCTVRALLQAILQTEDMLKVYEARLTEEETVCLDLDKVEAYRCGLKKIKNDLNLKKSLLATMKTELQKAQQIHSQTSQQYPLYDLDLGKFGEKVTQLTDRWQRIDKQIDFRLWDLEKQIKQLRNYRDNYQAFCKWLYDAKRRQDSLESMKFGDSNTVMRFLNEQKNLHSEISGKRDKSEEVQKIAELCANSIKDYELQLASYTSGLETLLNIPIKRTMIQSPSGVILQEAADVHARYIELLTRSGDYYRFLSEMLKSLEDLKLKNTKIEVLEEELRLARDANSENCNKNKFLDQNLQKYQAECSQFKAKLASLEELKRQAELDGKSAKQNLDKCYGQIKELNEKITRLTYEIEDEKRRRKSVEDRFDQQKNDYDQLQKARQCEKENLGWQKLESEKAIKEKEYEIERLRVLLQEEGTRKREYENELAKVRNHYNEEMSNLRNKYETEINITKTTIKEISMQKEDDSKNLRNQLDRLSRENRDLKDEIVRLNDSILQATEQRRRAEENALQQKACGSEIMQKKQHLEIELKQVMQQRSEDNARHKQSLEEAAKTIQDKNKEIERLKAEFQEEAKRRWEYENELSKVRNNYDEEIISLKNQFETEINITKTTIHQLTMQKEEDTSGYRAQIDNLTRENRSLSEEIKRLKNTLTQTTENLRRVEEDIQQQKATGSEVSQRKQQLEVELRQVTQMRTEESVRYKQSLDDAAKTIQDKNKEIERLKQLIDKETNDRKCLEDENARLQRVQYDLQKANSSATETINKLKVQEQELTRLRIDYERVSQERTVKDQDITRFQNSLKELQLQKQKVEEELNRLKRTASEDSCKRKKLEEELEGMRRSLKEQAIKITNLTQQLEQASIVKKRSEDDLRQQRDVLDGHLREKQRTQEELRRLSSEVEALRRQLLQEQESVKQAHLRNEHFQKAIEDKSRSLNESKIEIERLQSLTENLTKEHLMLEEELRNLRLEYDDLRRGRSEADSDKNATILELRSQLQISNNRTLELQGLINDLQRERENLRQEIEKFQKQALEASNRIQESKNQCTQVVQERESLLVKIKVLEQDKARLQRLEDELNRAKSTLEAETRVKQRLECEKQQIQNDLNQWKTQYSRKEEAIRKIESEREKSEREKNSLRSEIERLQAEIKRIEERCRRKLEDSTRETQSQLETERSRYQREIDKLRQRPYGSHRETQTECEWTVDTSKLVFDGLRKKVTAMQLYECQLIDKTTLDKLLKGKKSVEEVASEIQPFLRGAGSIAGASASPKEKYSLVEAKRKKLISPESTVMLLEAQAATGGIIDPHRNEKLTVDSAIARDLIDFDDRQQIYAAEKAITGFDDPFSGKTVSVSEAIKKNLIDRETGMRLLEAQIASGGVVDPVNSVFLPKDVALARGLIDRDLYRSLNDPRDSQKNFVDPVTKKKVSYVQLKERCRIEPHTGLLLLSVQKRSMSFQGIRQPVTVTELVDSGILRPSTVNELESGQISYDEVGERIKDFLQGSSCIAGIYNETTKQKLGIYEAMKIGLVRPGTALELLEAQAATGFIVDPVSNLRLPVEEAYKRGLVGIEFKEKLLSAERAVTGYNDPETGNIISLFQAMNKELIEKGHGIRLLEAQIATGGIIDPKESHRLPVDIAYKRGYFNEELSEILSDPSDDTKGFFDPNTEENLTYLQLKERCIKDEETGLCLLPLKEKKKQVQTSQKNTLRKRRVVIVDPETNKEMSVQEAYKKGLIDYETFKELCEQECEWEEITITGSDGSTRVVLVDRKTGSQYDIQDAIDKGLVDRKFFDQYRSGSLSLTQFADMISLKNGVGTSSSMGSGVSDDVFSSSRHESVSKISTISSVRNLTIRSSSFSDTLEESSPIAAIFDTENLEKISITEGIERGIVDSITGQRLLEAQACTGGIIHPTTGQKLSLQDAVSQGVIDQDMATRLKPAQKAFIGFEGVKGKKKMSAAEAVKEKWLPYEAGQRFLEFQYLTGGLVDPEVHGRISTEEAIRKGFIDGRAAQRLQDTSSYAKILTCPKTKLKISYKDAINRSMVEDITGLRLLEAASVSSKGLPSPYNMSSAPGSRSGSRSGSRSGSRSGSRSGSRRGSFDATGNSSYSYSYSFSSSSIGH
UniProt P04406: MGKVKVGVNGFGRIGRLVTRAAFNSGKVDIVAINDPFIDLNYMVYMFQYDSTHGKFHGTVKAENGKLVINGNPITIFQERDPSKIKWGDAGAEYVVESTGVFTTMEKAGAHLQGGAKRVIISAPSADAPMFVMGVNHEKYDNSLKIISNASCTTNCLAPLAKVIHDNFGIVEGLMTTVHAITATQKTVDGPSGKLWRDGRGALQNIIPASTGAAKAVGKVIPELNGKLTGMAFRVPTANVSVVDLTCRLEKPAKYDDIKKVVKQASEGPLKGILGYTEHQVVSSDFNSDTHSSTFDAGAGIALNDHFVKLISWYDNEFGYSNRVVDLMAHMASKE
UniProt P00738, residues 19-406: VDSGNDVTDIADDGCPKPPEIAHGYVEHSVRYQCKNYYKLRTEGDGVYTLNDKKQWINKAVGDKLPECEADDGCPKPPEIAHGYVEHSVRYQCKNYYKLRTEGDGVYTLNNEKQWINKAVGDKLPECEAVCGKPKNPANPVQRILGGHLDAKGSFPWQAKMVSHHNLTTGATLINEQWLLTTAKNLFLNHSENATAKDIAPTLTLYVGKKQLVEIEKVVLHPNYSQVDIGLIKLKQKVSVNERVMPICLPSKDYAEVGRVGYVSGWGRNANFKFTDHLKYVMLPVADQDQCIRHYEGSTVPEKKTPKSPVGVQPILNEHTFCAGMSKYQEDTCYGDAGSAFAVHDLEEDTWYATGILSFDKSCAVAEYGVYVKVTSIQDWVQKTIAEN
UniProt P01833, residues 19-764: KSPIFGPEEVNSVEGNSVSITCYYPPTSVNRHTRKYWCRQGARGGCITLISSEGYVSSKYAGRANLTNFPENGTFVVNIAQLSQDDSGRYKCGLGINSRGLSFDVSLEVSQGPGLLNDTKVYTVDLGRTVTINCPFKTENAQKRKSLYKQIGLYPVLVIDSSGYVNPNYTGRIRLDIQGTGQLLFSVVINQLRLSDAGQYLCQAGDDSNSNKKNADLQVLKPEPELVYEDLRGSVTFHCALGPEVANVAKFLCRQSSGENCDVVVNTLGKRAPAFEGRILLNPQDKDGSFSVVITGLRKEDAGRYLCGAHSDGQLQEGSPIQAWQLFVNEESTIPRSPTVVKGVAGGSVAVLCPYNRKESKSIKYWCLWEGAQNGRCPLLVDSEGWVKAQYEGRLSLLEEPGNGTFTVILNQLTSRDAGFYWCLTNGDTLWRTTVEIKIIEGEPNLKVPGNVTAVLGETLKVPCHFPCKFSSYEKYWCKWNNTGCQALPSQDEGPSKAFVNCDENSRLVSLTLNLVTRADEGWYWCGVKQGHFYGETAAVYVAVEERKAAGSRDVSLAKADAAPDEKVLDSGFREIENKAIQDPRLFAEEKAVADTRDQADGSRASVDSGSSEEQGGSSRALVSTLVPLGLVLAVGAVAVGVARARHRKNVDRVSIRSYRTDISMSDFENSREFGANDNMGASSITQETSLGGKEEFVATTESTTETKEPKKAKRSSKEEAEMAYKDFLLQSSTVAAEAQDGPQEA
UniProt Q9UP60: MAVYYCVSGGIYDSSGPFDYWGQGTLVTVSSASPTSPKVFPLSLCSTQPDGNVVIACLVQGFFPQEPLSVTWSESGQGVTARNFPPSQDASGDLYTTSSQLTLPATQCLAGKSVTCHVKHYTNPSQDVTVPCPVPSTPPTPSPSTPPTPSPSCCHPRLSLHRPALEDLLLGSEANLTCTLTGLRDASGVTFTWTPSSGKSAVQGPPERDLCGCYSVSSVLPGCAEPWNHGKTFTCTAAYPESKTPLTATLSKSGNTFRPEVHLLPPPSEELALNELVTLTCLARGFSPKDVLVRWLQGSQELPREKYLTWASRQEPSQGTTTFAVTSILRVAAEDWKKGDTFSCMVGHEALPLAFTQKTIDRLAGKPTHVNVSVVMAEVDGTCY

No constants are given. Whether binding was seen depends on the method and setting. Binding seen in cells or lysates may run through a third protein. These calls come from enrichment with a bait or labelling near it, and not all partners need be listed.

The assay addresses T1, Crystallin Alpha B (CRYAB) (human (endogenous in BMSCs)) (UniProt P02511).
T1 sequence: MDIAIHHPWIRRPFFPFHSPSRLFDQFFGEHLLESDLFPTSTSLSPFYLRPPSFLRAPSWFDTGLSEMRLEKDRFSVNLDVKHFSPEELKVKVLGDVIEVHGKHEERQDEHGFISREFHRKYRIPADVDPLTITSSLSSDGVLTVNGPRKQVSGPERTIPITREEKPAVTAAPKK
The assay can be described thus: affinity purification with mass spectrometry; IP-MS of CRYAB in BMSCs; IgG control; hits selected by fold change (Intensity BMSC-IP/Intensity BMSC-IgG) > 10.
Regarding DSP (from UniProt P15924 1-2871), the binding result is given as “binds”.

Take GAPDH (from UniProt P04406 1-335): the binding result is reported as “binds”.

Consider HP (from UniProt P00738 19-406), for which the binding entry is listed as “binds”.

With LTF (human (endogenous in BMSCs)), the binding result is listed as “binds”.

With PIGR (from UniProt P01833 19-764), the binding entry is listed as “binds”.

For SNC73 (from UniProt Q9UP60 1-384), the binding result is “binds”.

With “ferritin heavy chain 1 (FTH1) (from UniProt P02794 1-183)”, the binding entry is given as “binds”.
